In PubChem BioAssay (EPA / NIEHS):
Where “and” joins values, the source holds several entries; their conditions need not be identical. Equal values may be shown once. The inconclusive results got no clear call from the source; some entries with a clear call stand among them for comparison. Potencies of inconclusive entries are doubtful fits and often do not repeat. Some compounds were tested as several samples or in several runs, with calls that do not always agree. Calls of active or inactive are those of the source. Rule for the calls: active = hit-call score of the fitted dose curve at least 0.9, where 1 is the maximum; inconclusive = response in the unintended direction; inactive = score below 0.9.

Sequences of proteins named here, by UniProt entry; tags and fusion partners are left off. A change or cut given only in a name is not applied to a line headed by its entry.
UniProt Q96RI1: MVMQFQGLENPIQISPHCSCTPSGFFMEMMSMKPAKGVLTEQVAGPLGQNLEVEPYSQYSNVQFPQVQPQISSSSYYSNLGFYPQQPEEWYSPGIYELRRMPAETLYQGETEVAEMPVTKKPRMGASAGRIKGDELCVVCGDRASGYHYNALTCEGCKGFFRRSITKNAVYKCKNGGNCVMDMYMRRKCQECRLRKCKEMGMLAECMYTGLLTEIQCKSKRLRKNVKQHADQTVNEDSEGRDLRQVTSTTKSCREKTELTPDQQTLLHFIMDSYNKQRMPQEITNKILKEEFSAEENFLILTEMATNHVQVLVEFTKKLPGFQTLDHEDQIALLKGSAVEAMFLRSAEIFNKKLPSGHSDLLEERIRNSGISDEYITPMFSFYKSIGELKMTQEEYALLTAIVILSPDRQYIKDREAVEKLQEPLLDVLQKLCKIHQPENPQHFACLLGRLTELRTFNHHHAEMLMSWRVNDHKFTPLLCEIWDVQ
UniProt Q03181: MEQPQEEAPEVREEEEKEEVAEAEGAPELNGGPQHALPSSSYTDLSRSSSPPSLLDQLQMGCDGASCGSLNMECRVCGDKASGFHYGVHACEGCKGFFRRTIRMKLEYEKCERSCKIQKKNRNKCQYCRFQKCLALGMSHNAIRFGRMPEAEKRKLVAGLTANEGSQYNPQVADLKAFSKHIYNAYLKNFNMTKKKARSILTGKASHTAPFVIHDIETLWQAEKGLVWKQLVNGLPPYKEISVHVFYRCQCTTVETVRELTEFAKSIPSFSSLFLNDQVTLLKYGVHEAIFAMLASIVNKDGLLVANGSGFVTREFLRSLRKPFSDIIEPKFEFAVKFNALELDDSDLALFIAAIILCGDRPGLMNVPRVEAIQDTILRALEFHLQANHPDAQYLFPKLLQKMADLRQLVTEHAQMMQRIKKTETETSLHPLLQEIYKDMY
UniProt P04637, whole entry, looked up: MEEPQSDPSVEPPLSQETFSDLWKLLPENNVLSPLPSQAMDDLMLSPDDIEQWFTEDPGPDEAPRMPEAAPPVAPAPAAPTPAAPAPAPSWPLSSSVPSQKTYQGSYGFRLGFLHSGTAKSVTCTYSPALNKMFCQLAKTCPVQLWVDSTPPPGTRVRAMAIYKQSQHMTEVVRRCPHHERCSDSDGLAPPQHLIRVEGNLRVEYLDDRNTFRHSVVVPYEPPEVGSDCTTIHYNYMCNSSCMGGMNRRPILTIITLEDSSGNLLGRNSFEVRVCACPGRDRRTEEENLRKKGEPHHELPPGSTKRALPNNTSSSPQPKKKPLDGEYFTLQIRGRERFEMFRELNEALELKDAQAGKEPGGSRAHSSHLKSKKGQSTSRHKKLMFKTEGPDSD
UniProt P11473: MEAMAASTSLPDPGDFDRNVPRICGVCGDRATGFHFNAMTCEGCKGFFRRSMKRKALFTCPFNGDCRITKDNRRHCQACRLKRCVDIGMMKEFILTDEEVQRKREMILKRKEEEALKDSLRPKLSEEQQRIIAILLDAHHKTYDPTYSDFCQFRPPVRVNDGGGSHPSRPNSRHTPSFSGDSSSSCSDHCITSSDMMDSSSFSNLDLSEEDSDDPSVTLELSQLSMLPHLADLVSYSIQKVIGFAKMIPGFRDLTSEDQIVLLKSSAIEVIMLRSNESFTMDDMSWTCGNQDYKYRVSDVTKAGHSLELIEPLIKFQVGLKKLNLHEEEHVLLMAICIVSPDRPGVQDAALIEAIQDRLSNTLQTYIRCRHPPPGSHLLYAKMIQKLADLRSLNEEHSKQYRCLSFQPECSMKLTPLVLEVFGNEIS
UniProt P04150: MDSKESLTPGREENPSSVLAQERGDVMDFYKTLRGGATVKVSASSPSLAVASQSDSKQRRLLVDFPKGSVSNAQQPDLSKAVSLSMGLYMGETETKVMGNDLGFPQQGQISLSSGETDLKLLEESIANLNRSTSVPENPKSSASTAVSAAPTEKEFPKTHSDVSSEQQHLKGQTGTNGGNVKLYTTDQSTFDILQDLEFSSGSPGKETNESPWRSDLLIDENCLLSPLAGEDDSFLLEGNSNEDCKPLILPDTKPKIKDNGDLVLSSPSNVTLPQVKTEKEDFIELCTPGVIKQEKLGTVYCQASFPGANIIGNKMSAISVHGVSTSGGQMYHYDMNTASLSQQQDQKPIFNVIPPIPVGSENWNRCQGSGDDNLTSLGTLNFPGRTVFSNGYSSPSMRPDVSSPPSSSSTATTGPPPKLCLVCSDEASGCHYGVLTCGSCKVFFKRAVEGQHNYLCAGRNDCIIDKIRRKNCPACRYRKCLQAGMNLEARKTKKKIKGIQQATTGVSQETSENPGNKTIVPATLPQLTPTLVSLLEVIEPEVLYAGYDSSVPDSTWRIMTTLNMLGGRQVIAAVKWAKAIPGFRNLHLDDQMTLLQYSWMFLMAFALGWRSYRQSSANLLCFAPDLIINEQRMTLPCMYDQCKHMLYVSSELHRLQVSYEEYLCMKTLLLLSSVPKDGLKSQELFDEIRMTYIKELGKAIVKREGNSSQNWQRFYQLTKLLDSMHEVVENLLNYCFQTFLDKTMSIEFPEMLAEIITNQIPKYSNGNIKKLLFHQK
UniProt P37231: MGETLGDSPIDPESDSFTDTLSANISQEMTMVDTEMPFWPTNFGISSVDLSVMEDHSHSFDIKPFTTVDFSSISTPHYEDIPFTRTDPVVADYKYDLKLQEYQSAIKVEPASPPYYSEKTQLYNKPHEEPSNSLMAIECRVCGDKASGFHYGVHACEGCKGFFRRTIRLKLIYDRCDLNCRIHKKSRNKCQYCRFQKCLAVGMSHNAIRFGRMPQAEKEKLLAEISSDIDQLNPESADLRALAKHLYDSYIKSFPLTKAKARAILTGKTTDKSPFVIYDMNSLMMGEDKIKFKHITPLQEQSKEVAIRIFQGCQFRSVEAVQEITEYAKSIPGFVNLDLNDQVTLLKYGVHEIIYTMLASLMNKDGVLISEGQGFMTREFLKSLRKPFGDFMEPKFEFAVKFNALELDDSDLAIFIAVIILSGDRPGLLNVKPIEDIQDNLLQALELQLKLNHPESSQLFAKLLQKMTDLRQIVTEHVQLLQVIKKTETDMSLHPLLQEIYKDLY
UniProt O75469: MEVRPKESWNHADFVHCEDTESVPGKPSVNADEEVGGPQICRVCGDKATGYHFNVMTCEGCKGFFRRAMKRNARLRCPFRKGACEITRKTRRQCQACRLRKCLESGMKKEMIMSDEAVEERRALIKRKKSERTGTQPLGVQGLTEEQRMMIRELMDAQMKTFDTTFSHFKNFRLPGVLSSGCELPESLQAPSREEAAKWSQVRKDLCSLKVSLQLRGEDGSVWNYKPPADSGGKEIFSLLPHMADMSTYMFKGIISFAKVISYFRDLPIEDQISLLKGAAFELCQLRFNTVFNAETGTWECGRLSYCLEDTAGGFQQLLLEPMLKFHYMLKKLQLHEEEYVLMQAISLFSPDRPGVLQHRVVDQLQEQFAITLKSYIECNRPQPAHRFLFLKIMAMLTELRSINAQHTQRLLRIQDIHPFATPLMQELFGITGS
UniProt P19793: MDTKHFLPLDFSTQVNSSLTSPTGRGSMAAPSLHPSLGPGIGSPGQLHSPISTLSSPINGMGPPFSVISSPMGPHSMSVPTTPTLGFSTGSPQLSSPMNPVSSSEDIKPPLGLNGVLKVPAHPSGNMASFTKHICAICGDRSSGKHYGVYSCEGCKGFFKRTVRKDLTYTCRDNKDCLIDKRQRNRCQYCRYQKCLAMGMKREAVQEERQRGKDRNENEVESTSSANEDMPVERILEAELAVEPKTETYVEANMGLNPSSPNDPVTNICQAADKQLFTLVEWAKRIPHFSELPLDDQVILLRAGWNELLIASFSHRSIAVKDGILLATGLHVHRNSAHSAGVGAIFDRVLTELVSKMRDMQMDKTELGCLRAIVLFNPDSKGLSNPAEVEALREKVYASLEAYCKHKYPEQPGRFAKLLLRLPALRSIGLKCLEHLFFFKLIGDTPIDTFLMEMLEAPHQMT

How the values were obtained:
[1] = molecular target: Bile acid receptor (Homo sapiens) (UniProt Q96RI1); assay: ATG_FXR_TRANS: Attagene TRANS-FACTORIAL HepG2 Assay for Farnesoid X Receptor (FXR) (AID 2282979); details: HepG2 Attagene TRANS FXR-GAL4 reporter transcription;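 note: hits raise reporter mRNA above DMSO so AC50 marks FXR activation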
Outline: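 Transient transfection of HepG2 with multiplexed GAL4-UAS reporter units; exogenous FXR-GAL4 chimera. Dose 24 h → TriZol RNA → oligo(dT) RT → PCR, 6-FAM primer extension, HpaI cut → CE. Gain vs DMSO.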

[2] = molecular target: human Peroxisome Proliferator-activated Receptor delta (PPARd), PPARD (gene 5467) (UniProt Q03181); assay: ATG_PPARd_TRANS: Attagene TRANS-FACTORIAL HepG2 Assay for human Peroxisome Proliferator-activated Receptor delta (PPARd) (AID 2283002)
Outline: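 HepG2 cells transiently transfected with multiplexed GAL4-UAS reporter units and exogenous chimeric NR-Gal4 proteins; 24 h compound exposure. Reporter mRNA measured by RT-PCR, 6-FAM labelling, HpaI digestion and capillary electrophoresis; gain of signal versus DMSO.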

[3] = molecular target: Cellular tumor antigen p53 (Homo sapiens) (UniProt P04637); assay: TOX21_p53_BLA_p2_ratio: Tox21 HCT-116 p53 Agonism Beta-lactamase Assay, Ratio, Phase 2 (AID 2283592)
Outline: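 HCT116 p53-bla; 4000 cells/well; 5 h pre-incubation; cpd in DMSO, 217-fold dilution; 16 h 37C/5% CO2; CCF4-AM 2 h RT; Ex 405, Em 460/530 ratio; DMSO = baseline; positive fitting direction.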

[4] = molecular target: Cellular tumor antigen p53 (Homo sapiens) (UniProt P04637); assay: TOX21_p53_BLA_p3_ratio: Tox21 HCT-116 p53 Agonism Beta-lactamase Assay, Ratio, Phase 3 (AID 2283596)
Outline: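 HCT116 p53-bla cells (4000/well) given compound in DMSO (217-fold dilution) after 5 h, incubated 16 h at 37C. CCF4-AM substrate 2 h at room temperature; 460/530 nm emission ratio, gain fitted against DMSO.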

[5] = molecular target: Cellular tumor antigen p53 (Homo sapiens) (UniProt P04637); assay: TOX21_p53_BLA_p5_ratio: Tox21 HCT-116 p53 Agonism Beta-lactamase Assay, Ratio, Phase 5 (AID 2283599)
Outline: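 HCT-116 cells carrying a p53-inducible beta-lactamase reporter were seeded at 4000 cells/well and dosed after 5 h with compound in DMSO (217-fold dilution). After 16 h at 37C, CCF4-AM substrate was added for 2 h, and the 460/530 nm emission ratio was scored as gain-of-signal versus DMSO.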

[6] = TOX21_p53_BLA_p5_viability: Viability Assessment in the Tox21 HCT-116 p53 Agonism Beta-lactamase Assay, Phase 5 (AID 2283600)
Outline: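 4000 cells/well; 5 h pre-incubation; DMSO compounds pin-transferred, 217-fold dilution; 16 h, 37C/5% CO2; CCF4-AM 2 h RT; CellTiter-Glo 30 min RT; luminescence.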

[7] = molecular target: Cellular tumor antigen p53 (Homo sapiens) (UniProt P04637); assay: TOX21_p53_BLA_p4_ratio: Tox21 HCT-116 p53 Agonism Beta-lactamase Assay, Ratio, Phase 4 (AID 2283601)
Outline: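 HCT116 cells carrying an inducible beta-lactamase reporter were plated at 4000 cells/well, rested 5 h, then exposed to compounds in DMSO (217-fold dilution) for 16 h at 37C. CCF4-AM substrate was loaded 2 h at room temperature; 460/530 nm emission ratio scored gain-of-signal versus DMSO.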

[8] = ATG_M_06_TRANS: Attagene TRANS-FACTORIAL HepG2 Assay for M06 Transcription Factor (Internal Marker) (AID 2282983); details: HepG2 Attagene TRANS M06 internal marker reporter;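 for AC50: potency for rise in reporter mRNA above DMSO baseline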
Outline: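 Transfect HepG2 with MRTUs → dose compounds 24 h → isolate RNA, oligo(dT) RT → PCR with reporter primers → 6-FAM primer extension → HpaI digest → CE fragment analysis. Positive direction vs DMSO.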

[9] = ATG_M_32_TRANS: Attagene TRANS-FACTORIAL HepG2 Assay for M32 Transcription Factor (Internal Marker) (AID 2282984); details: HepG2 Attagene TRANS M32 internal marker reporter
Outline: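 HepG2 cells transiently transfected with multiple GAL4-UAS reporter transcription units, dosed for 24 hours; reporter mRNA quantified by RT-PCR, 6-FAM primer extension, HpaI digestion and capillary electrophoresis. Gain-of-signal fitted versus DMSO baseline; internal background-control marker.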

[10] = molecular target: human Vitamin D Receptor (VDR), VDR (gene 7421) (UniProt P11473); assay: ATG_VDR_TRANS: Attagene TRANS-FACTORIAL HepG2 Assay for human Vitamin D Receptor (VDR) (AID 2283022)
Outline: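 Steps: transfect HepG2 with GAL4-UAS-driven reporter constructs; dose compounds 24 h; isolate RNA, reverse-transcribe, PCR-amplify with 6-FAM-labelled primer extension and HpaI digestion; quantify fragments by capillary electrophoresis relative to DMSO.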

[11] = molecular target: Glucocorticoid receptor (Homo sapiens) (UniProt P04150); assay: ATG_GR_TRANS: Attagene TRANS-FACTORIAL HepG2 Assay for human Glucocorticoid Receptor (GR) (AID 2282978); details: HepG2 Attagene TRANS GR reporter, mRNA transcription;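 note: activators score as hits since higher reporter transcript over DMSO is fitted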
Outline: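 Readout is reporter transcript from a chimeric GR-Gal4 acting on GAL4-UAS in transfected human HepG2 liver cells after 24 h exposure, quantified by RT-PCR and capillary electrophoresis. Activation fitted upward against DMSO.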

[12] = molecular target: Peroxisome proliferator-activated receptor gamma (Homo sapiens) (UniProt P37231); assay: ATG_PPARg_TRANS: Attagene TRANS-FACTORIAL HepG2 Assay for human Peroxisome Proliferator-activated Receptor-gamma (PPARg) (AID 2283007)
Outline: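 After 24 h of chemical exposure, transfected HepG2 cells carrying PPARγ-Gal4 chimera reporter constructs are lysed for RNA. Reporter transcripts are measured by RT-PCR and capillary electrophoresis with fluorescent labelling, and gain of signal is fitted versus DMSO.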

[13] = molecular target: Nuclear receptor subfamily 1 group I member 2 (Homo sapiens) (UniProt O75469); assay: ATG_PXR_TRANS: Attagene TRANS-FACTORIAL HepG2 Assay for human Pregnane X Receptor (PXR) (AID 2283008)
Outline: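 Fluorescence intensity of FAM-labelled, HpaI-digested reporter amplicons, separated by capillary electrophoresis, quantifies induction. HepG2 cells with PXR-Gal4 trans-reporter system were exposed 24 h; DMSO defines baseline.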

[14] = CCTE_Deisenroth_AIME_384WELL_CTox_Active: Cytotoxicity Assessment (CTOX) in CCTE's 384-well Estrogen Receptor Transactivation Assay with AIME metabolic competence (metabolism positive), Deisenroth Lab (AID 2284037);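 note: chemicals first conditioned 2 h by alginate-bound induced rat liver S9 before cells; activity means signal loss indicating cell death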
Outline: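 VM7Luc4E2 breast cells received medium pre-incubated 2 h with chemical over alginate microspheres holding induced male Sprague Dawley rat liver S9; viability read 24 h later by protease-substrate fluorescence. Loss of signal, bidirectional fit, 0.002–200 uM.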

[15] = molecular target: Retinoic acid receptor RXR-alpha (Homo sapiens) (UniProt P19793); assay: OT_NURR1_NURR1RXRa_1440: Odyssey Thera (OT) 24-hour HEK293T Protein Complementation Assay for Nurr1/retinoid X receptor (RXR) (AID 2283386)
Outline: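 HEK293T cells were dosed with compound and read 24 h later by fluorescence intensity in a protein-fragment complementation format, where Nurr1–RXRα interaction reconstitutes a split reporter. Activity was fitted as gain of signal relative to DMSO baseline.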

[16] = molecular target: Retinoic acid receptor RXR-alpha (Homo sapiens) (UniProt P19793); assay: OT_NURR1_NURR1RXRa_0480: Odyssey Thera (OT) 8-hour HEK293T Protein Complementation Assay for Nurr1/retinoid X receptor (RXR) (AID 2283385)
Outline: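 HEK293T cells expressing Nurr1 and RXRα fused to reporter fragments were dosed with compound for 8 hours. Complex formation was read as fluorescence intensity and analysed as gain of signal against DMSO as baseline.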

[17] = CCTE_Harrill_HTTr_CellCount_MCF7: CCTE's Cell Proliferation Assessment for the High-Throughput Transcriptomics (HTTr) Platform, Harrill Lab (AID 2284012);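 note: cells exposed to compound for six hours; intended direction is loss of nuclei count meaning fewer cells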
Outline: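 MCF-7 cells were exposed for 6 h to an eight-point dilution series; Hoechst-labeled nuclei were counted by high content imaging. Curves were fitted bidirectionally against DMSO as negative control and baseline, with signal loss indicating reduced cell count.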

[18] = ATG_XTT_Cytotoxicity: Cytotoxicity Assessment in the Attagene TRANS-FACTORIAL HepG2 Assay (AID 2283584);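 note: cells exposed to compound for 24 h before reading; active means loss of viability signal versus DMSO baseline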
Outline: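 Cells: human HepG2, transiently transfected with MRTU reporter constructs. Exposure 24 h. Readout: XTT, cell number. Baseline/neg ctrl DMSO; loss-of-signal scored.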

Measured: AC50

IC(I)I
inconclusive: [3] 46 µM | [4] 46.1 µM | [5] 46.1 µM and 23 µM | [6] 6.41 µM | [7] 46.1 µM and 78.7 µM
inactive: [1] | [2]

CC/C=C\CC/C=C/CO
active: [12] 52.9 µM
inconclusive: [11] 23.7 µM
inactive: [8] | [9] | [2]

O=C1c2ccccc2C(=O)c2c(O)ccc(O)c21
inactive: [8] | [9] | [7]
inconclusive: [11] 100 µM | [10] 100 µM
active: [12] 8.37 µM

N#CCc1ccc(Cl)cc1Cl
inactive: [8] | [13]
inconclusive: [3] 46.1 µM | [4] 46.1 µM

C1=CC2C3C=CC(C3)C2C1 (configuration not stated)
inactive: [15] | [6]
inconclusive: [14] 0.0002 µM

CCCCC1C(=O)N(c2ccccc2)N(c2ccccc2)C1=O
inactive: [10] | [6]
inconclusive: [8] 176 µM | [3] 23 µM | [5] 45.8 µM | [6] 0.0277 µM | [7] 46.1 µM

CCCCC1CCC(=O)O1 (configuration not stated)
inactive: [4]

O=C(NS(=O)(=O)/C=C/c1ccccc1)c1ccc(F)cc1Cl
active: [12] 22.3 µM | [13] 16.2 µM | [16] 27.4 µM | [15] 15.2 µM | [3] 13 µM | [4] 24.9 µM | [5] 13.5 µM | [7] 22 µM
inconclusive: [8] 100 µM | [2] 100 µM | [6] 0.129 µM | [17] 50 µM

CCc1ccc(C=O)cc1
inactive: [10] | [6]
inconclusive: [2] 100 µM | [5] 46.1 µM | [7] 73.3 µM

COc1cc(C)ccc1O
inconclusive: [3] 46.1 µM
inactive: [13] | [10]

2 records drawn at random from those above, as already listed:
COc1cc(C)ccc1O
inconclusive: [3] 46.1 µM
inactive: [13] | [10]

O=C(NS(=O)(=O)/C=C/c1ccccc1)c1ccc(F)cc1Cl
active: [12] 22.3 µM | [13] 16.2 µM | [16] 27.4 µM | [15] 15.2 µM | [3] 13 µM | [4] 24.9 µM | [5] 13.5 µM | [7] 22 µM
inconclusive: [8] 100 µM | [2] 100 µM | [6] 0.129 µM | [17] 50 µM

Additional records follow.

CC(O)CO (configuration not stated)
inactive: [16] | [5] | [17]
inconclusive: [2] 0.00914 µM | [15] 50 µM and 20.9 µM | [18] 0.0823 µM | [3] 44.7 µM | [6] 46.1 µM and 23 µM

CCCCCCC(C)OC(=O)COc1nc(F)c(Cl)c(N)c1Cl (configuration not stated)
inconclusive: [17] 50 µM | [14] 0.00584 µM
inactive: [10]
active: [16] 79.2 µM | [3] 82.3 µM | [7] 87.2 µM

CC(Cl)COP(=O)(OCC(C)Cl)OCC(C)Cl (configuration not stated)
inconclusive: [8] 4.75 µM | [3] 45.9 µM | [4] 45.9 µM | [6] 45.9 µM | [7] 45.9 µM
